Where a protein sequence is shown, tags need not be part of it.
Molecular target: T1, MS2 coat protein, dlFG mutant del68-81insG (Escherichia phage MS2) (UniProt P03612)
T1 sequence (looked up, limits assumed): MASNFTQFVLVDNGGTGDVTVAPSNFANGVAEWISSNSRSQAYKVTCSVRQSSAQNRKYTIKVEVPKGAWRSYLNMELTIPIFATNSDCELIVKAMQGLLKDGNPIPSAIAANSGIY
Assay: binding assay
Conditions: 4 mM Mg2+, RNA-MaP array, 100 mM Tris-HCl pH 7.5, 80 mM KCl, 4 mM MgCl2, 0.1 mg/mL BSA, 1 mM DTT, 0.01 mg/mL yeast tRNA, 0.01% Tween-20, protein 1.5 nM to 3 uM, 37 C (Table S3), purified recombinant protein

Sequence | Kd (no ligand) | Kd (FMN 200 uM)
CUAUCGAGGUAACUCGCUAUCACACCAGAAGGGACGGAGGCACAUGAGGAUCACCCAUGUCCUAGUCAGGAUAUGGGUGAGUAG [Eterna 6439008 (Inverted Small Loop Same State NG 3)] | > 3000 nM | –
GAGCGCGUGGACUGGCGUGCUCCGCUCCGUCGAGGACCGGUACGGCCGCCACUCGACAUGAGGAUCACCCAUGUGUGCGCUCGCG [Eterna 7732704 (Exclusion - Tryptophan A)] | > 3000 nM | –
UCAUAACAUGAGGAUCACCCAUGUCAGGAUAUGAUACUAUGUACUUCGGUACAUAGUAUCAGAAGGGACAUGCU [Eterna 9252 (Exclusion 1)] | – | > 3000 nM
UGAGCGACCACAGGAUAUACUUGAGAAGACCGAGUAGAAGGGUGGAAGAGCAUGCAGUGACAUGAGGAUCACCCAUGUGGUUGG [Eterna 6428796 (Same State NG 1)] | > 3000 nM | –
AAUGUGUGUCGAGGAUAUAUAACAUGACAACAAACACAUACAUGAGGAUCACCCAUGUCCCAUGUAUAGAAGGCGAUGUGUGUG [Eterna 6134751 (Same State NG 2)] | > 3000 nM | –
